Data published in publication PMC7478753.

What was measured:
[1] = molecular target: T1, GAL4 DNA-BD-NaD14 (DWARF 14, the receptor for strigolactone) (N. attenuata); assay: two-hybrid; Matchmaker Gold, Y2H Gold cells; BD-D14 as bait with AD fusions; growth on QDO (SD-Ade/-His/-Leu/-Trp) in the presence of rac-GR24 (5 uM), 30°C, 5-7 days
T1 sequence: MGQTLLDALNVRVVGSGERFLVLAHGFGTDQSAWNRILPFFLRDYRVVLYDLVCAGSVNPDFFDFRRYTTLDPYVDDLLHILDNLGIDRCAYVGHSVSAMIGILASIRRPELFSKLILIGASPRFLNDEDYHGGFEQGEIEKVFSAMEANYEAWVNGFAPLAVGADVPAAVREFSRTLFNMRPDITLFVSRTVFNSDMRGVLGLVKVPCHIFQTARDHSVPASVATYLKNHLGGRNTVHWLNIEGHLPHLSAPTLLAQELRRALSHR

[2] = molecular target: NaSMXL6-YFP (N. attenuata); assay: pull-down; SMXL6/7-YFP from N. benthamiana leaf extract held on GFP-Trap-A beads and washed; 1 ug purified D14-GST added with/without 20 uM rac-GR24, 22°C, 1 hour; 50 mM Tris-Cl pH 7.0, 150 mM NaCl, 0.5% Tween 20; wash with 300 mM NaCl; blot with anti-GST; only the binder purified
[3] = molecular target: NaSMXL7-YFP (N. attenuata); assay: as above

AD-NaSMXL7 (suppressor of max2-like 7) (N. attenuata)
binding [1]: binds

AD-NaMAX2a (MORE AXILLARY GROWTH 2a, F-box protein) (N. attenuata)
binding [1]: binds

B1: GST-D14 (purified recombinant NaD14) (receptor, UniProt A0A314LHI7 1-267)
chain: T1 sequence
binding [2]: binds | binding [3]: binds

Results are given in words; binding and its absence hold for the method and conditions named. Binding can be weak; no strength is given. Sequences can lack the tags named with a protein. For some of these results: In cells and extracts the contact can be indirect.
